The results in this text go back to publication PMC5309860 (2017).

Protein sequences, listed by entry. Tags and fused reporters are not part of them. Lines headed by an entry give the natural chain unless they say otherwise; changes in a name come on top.
UniProt Q8BWG8: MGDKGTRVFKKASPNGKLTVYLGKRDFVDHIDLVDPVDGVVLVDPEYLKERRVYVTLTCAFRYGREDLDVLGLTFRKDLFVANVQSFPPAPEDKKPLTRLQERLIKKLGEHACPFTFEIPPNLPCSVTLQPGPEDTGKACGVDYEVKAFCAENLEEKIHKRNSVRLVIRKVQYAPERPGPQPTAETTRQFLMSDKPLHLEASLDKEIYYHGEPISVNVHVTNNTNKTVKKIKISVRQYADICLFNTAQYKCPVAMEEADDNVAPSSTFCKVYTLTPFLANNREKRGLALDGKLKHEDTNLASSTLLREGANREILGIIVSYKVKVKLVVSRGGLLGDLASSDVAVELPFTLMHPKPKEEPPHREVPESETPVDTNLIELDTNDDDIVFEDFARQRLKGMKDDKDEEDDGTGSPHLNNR
UniProt P49407: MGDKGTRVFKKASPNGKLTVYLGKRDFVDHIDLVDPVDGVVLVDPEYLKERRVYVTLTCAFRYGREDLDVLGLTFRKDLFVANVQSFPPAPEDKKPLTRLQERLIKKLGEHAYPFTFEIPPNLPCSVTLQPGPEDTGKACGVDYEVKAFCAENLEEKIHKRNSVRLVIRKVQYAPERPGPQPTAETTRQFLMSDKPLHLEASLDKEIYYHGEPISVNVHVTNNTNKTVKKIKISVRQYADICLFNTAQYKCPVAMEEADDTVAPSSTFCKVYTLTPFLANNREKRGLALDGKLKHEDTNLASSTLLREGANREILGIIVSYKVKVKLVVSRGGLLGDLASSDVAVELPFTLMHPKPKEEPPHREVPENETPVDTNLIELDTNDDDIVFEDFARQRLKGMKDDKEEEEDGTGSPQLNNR

No constants are given. Whether binding was seen depends on the method and setting. In cells and extracts the contact can be indirect. Some entries that bind do so weakly or less than the wild type.

The target in assay [1] is T1, phosphoinositide-specific phospholipase C (PLCγ1) (human (endogenous in HEK293)) (UniProt P19174).
T1 sequence: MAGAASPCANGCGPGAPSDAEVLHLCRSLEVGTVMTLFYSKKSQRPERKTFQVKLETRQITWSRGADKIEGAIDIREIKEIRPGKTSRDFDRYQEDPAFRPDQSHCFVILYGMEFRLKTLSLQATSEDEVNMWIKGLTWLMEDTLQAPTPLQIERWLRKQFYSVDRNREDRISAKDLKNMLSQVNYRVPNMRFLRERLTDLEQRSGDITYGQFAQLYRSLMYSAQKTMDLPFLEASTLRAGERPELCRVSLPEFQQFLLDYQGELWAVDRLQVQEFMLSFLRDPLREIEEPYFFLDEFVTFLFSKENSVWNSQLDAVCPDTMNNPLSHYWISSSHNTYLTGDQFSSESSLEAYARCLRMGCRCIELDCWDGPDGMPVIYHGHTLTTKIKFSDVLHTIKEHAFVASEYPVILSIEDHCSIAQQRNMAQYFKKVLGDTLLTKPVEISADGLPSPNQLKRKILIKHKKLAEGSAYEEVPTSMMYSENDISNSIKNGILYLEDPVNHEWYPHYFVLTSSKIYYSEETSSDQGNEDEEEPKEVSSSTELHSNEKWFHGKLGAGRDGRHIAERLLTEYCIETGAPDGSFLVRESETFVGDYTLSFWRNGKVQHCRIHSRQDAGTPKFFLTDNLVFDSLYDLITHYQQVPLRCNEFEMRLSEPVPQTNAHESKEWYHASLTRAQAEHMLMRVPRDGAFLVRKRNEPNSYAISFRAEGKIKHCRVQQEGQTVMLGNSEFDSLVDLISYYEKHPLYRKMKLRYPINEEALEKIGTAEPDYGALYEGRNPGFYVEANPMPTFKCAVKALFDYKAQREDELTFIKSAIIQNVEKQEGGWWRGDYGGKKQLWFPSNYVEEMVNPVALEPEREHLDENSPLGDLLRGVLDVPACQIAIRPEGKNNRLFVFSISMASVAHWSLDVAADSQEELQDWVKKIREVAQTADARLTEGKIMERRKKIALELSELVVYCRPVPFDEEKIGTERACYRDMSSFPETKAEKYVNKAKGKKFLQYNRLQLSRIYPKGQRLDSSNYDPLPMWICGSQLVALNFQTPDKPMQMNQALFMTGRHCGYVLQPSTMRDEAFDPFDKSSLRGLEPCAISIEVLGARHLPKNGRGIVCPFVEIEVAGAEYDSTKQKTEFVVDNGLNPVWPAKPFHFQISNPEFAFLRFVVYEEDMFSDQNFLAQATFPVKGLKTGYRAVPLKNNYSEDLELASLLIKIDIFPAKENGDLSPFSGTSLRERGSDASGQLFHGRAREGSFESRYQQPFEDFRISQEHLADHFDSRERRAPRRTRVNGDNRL
Description: co-IP; competition: TAT-P1 peptide (5 μM, 2 h) given to HEK293 cells with AT1R-cherry, TRPC3-GFP and β-arrestin-1 before TRV120027; loss of the PLCγ-β-arrestin-1 co-precipitate; only the binder purified.

Assay [2] has as its target endogenous β-arrestin-1 (adrenal medulla) (mouse (endogenous in adrenal medulla)) (UniProt Q8BWG8). Description: co-IP; isolated adrenal medulla after 100 nM TRV120027; endogenous β-arrestin-1 precipitated with the antibody A1CT, partners detected by specific antibodies.

For “TAT-P1 peptide (from UniProt P49407 82-94)”, the binding result in assay [1] is given as “binds”.

B1: endogenous TRPC3 (adrenal medulla) (protein, UniProt Q9QZC1 1-910)
chain: MSTKVKKCREPARVTLPAPEEEEDGEAEGGESQRRRRGWRGVNGGLEPPCPRAPPSPGPDASSEGSPSRWRTAGMRDKGRRQAVRGPAFMFGARGPSLTAEEERFLDAAEYGNIPVVRKMLEESRTLNVNCVDYMGQNALQLAVGNEHLEVTELLLKKENLARIGDALLLAISKGYVRIVEAILGHPGFAASRRLTLSPCEQELRDDDFYAYDEDGTRFSPDITPIILAAHCHKYEVVHLLLLKGARIERPHDYFCRCSDCAEKQRLDAFSHSRSRINAYKGLASPAYLSLSSEDPVLTALELSNELAKLANIEKEFKNDYRKLSMQCKDFVVGVLDLCRDSEEVEAILNGDLESAEPLERHGHKASLSRVKLAIKYEVKKFVAHPNCQQQLLTIWYENLSGLREQTIAIKCLVVLVVALGLPFLAIGYWIAPCSRLGKILRSPFMKFVAHAASFIIFLGLLVFNASDRFEGITTLPNITVIDYPKQIFRVKTTQFTWTEMLIMVWVLGMMWSECKELWLEGPREYIVQLWNVLDFGMLSIFIAAFTARFLAFLQATKAQQYVDSHVQESDLSEVTLPPEVQYFTYARDKWLPSDPQIISEGLYAIAVVLSFSRIAYILPANESFGPLQISLGRTVKDIFKFMVLFIMVFLAFMIGMFILYSYYLGAKVNPAFTTVEESFKTLFWSIFGLSEVTSVVLKYDHKFIENIGYVLYGIYNVTMVVVLLNMLIAMINSSYQEIEDDSDVEWKFARSKLWLSYFDDGKTLPPPFSLVPSPKSFVYFIMRITNFSKCRRRRLQKDLELGMGNSKSRLNLFTQSNSRVFESHSFNSILNQPTRYQQIMKRLIKRYVLKAQVDKENDEVNEGELKEIKQDISSLRYELLEDKSQATEELAILIHKLSEKLNPSVLRCE
Turning to B1, the binding result in assay [2] was “binds”.
